In article PMC9223585, “Structural and Functional Insights into CP2c Transcription Factor Complexes” (International Journal of Molecular Sciences, 2022):
The exact form of at least one protein or probe is not confirmed. Where cells or extracts were used, other partners may take part. For part of these data: No signal at the amounts used counts as a negative. For part of these data: At least one verdict rests on a figure or table, not on a statement of the authors. For part of these data: Where a protein sequence is shown, tags need not be part of it. For part of these data: A weaker result is weaker than the reference pair of the same experiment.

Tests used:
[1] = molecular target: T1, CP2c (TFCP2, LSF + homotetramer tCP2c [C4]) (UniProt Q9ERA0); experiment: pull-down titration; settings: DSP pull-down: 2 mM DSP 30 min room temp, beads overnight 4 C, protein in a lysate after overexpression, label: 5' biotin both strands; for Kd: CP2c read-out; for binding result: Kd only in figure
T1 sequence (looked up, limits assumed): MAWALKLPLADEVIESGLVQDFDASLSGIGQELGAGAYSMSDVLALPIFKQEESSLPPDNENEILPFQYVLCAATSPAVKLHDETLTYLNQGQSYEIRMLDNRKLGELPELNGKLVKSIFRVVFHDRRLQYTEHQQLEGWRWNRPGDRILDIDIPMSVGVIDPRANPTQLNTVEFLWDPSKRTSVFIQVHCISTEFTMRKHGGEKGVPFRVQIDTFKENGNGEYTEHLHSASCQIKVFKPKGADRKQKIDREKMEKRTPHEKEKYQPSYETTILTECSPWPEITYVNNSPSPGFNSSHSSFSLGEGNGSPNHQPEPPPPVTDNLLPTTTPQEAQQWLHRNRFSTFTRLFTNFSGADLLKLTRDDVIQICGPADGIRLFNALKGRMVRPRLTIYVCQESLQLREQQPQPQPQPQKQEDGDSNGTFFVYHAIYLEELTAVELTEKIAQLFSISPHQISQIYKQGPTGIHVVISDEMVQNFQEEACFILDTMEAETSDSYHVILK

[2] = test system: CP2c endogenous + CP2b endogenous + PIAS1 endogenous; experiment: pull-down (DSP crosslink, Western blot); settings: DSP pull-down: 2 mM DSP 30 min room temp, beads overnight 4 C, protein in an extract
[3] = molecular target: T1, CP2c (TFCP2, LSF + homotetramer tCP2c [C4]); experiment: DNA co-immunoprecipitation (DIP); settings: DIP: 4% glycerol, 10 mM Tris-HCl pH 7.4, 1 mM DTT, 1 mM EDTA, 0.1% NP-40, room temp 15 min, titration: 0-100 nM biotin dsDNA, 293T nuclear lysate, streptavidin beads, protein in a lysate after overexpression, label: 32P (Klenow fill-in)
[4] = test system: CP2c (TFCP2, LSF + homotetramer tCP2c [C4]) + CP2b (in CBP complex [C2B2P2]2) + Pias1 (in CBP complex [C2B2P2]2); experiment: DNA co-immunoprecipitation (DIP); settings: DIP: 4% glycerol, 10 mM Tris-HCl pH 7.4, 1 mM DTT, 1 mM EDTA, 0.1% NP-40, room temp 15 min, titration: 0-100 nM biotin dsDNA, 293T nuclear lysate, streptavidin beads, protein in a lysate after overexpression, label: 32P (Klenow fill-in)
CP2c endogenous = molecular target: T2, CP2c endogenous (UniProt Q12800); experiment: pull-down (DSP crosslink, Western blot); settings: DSP pull-down: 2 mM DSP 30 min room temp, beads overnight 4 C, protein in an extract
T2 sequence (looked up, limits assumed): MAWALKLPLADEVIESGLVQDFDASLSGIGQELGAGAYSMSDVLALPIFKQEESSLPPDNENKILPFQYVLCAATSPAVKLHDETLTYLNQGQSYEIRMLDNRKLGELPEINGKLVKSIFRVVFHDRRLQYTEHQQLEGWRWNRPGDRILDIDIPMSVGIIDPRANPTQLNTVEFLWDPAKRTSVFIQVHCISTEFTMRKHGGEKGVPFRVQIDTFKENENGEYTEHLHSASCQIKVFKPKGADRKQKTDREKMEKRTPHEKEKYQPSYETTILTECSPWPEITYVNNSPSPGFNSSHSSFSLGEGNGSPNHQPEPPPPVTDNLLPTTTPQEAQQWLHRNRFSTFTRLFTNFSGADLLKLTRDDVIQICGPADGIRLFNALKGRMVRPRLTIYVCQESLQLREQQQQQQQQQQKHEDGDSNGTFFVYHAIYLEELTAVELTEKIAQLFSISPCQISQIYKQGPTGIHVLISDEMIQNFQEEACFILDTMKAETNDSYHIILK

[5] = test system: CP2c (TFCP2, LSF + homotetramer tCP2c [C4]) + CP2b (in CBP complex [C2B2P2]2) + Pias1 (in CBP complex [C2B2P2]2); experiment: pull-down titration; settings: DSP pull-down: 2 mM DSP 30 min room temp, beads overnight 4 C, protein in a lysate after overexpression, label: 5' biotin both strands
[6] = label: 5' biotin, letters put together from the description
[7] = letters put together from the description

GATCCCAAGTTTTACTCGGTAGAGCAAGCACAAACCAGG (double strand) [Hba-a2 promoter WT (Bio)]
Kd ([1]; CP2b and Pias1 co-expressed): 4.17 nM | binding result ([2]; label: 5' biotin both strands): binds

GCTAGCGATCCCAAGTTTTACTCGGTAGAGCAAGCACAAACCAGG / CTCGAGCCTGGTTTGTGCTTGCTCTACCGAGTAAAACTTGGGATC [Hba-a2 promoter WT (DIP)]
binding result ([3]; CP2c alone): binds | binding result [4]: binds

CGAGTCCATCTGATAAGACTTATCTGCTGCCACAGAGCAGGTAAGAGCTGGCGTAAGCCCCAG (double strand) [Gata1 enhancer Mut1/3 (Bio)]
binding result (CP2c endogenous; label: 5' biotin both strands): binds | binding result ([2]; label: 5' biotin both strands): no binding

GATCCAAAGTTTTATTCGGTAGAGCAAGCACAAACCAGG (double strand) [Hba-a2 Mut1/2 (Bio)]
binding result [1]: binds more weakly | binding result (CP2c endogenous; label: 5' biotin both strands): binds | binding result ([2]; only CP2c found, label: 5' biotin both strands): no binding

GCTAGCGATCCAAAGTTTTACTCGGTAGAGTAAGCACAAACCAGG / CTCGAGCCTGGTTTGTGCTTACTCTACCGAGTAAAACTTTGGATC [Hba-a2 Mut1/3 (DIP)]
binding result ([3]; no two consecutive half-sites): no binding | binding result [4]: no binding

GATCCAAAGTTTTACTCGGTAGAGCAAGCACAAACCAGG (double strand) [Hba-a2 Mut1 (Bio)]
Kd ([1]; value from range 9.53 to 10.55 for Mut 4 and Mut 1): 10.6 nM | binding result ([2]; label: 5' biotin both strands): binds

GATCCCAAGTTTTACTCGGTAGAGCAAGCACAAATCAGG (double strand) [Hba-a2 Mut4 (Bio)]
Kd ([1]; CP2b and Pias1 co-expressed): 9.53 nM | Kd ([5]; CP2b read-out): 15 nM | Kd ([5]; Pias1 read-out): 15.1 nM

GATCCAAAGTTTTACTCGGTAGAGTAAGCACAAACCAGG (double strand) [Hba-a2 Mut1/3 (Bio)]
binding result (CP2c endogenous; [6]): no binding | binding result [2, 6]: no binding

GATCCAAAGTTTTACTCGGTAGAGCAAGCACAAATCAGG (double strand) [Hba-a2 Mut1/4 (Bio)]
binding result [1]: binds more weakly

GCTAGCCGAGTCCATCTGATAAGACTTATCTGCTGCCACAGAGCAGGTAAGAGCTGGCGTAAGCCCCAG / CTCGAGCTGGGGCTTACGCCAGCTCTTACCTGCTCTGTGGCAGCAGATAAGTCTTATCAGATGGACTCG [Gata1 enhancer Mut1/3 (DIP)]
binding result [3]: binds | binding result [4]: no binding

GATCCCAAGTTTTACTCGGTAGAGTAAGCACAAATCAGG (double strand) [Hba-a2 Mut3/4 (Bio)]
Kd [1]: 25.4 nM | binding result ([5]; two half-sites prevent CBP binding): no binding

CGAGTCCATCTGATAAGACTTATCAGCAGCCCCAGATTGAGCCAGATTGAGCGTAAGCCCCAG (double strand) [Gata1 enhancer Mut2/4 (DIP)]
binding result [3, 7]: binds | binding result [4, 7]: no binding

CGAGTCCATCTGATAAGACTTATCTGCTGCCCCAGAGCAGGCCAGAGCTGGCGTAAGCCCCAG (double strand) [Gata1 enhancer WT (Bio)]
Kd ([1]; CP2b and Pias1 co-expressed): 9.56 nM | Kd ([5]; CP2b read-out): 14.1 nM | Kd ([5]; Pias1 read-out): 14.2 nM | binding result ([2]; label: 5' biotin both strands): binds

GCTAGCCGAGTCCATCTGATAAGACTTATCTGCTGCCCCAGAGCAGGCCAGAGCTGGCGTAAGCCCCAG / CTCGAGCTGGGGCTTACGCCAGCTCTGGCCTGCTCTGGGGCAGCAGATAAGTCTTATCAGATGGACTCG [Gata1 enhancer WT (DIP)]
binding result [4]: binds
